Some of the results follow. The data scatter; read single values as rough.
How the values were obtained:
[1] = compound: ClCC(=O)N[C@@H]1CCCc2ccccc12; assay: log2 mean competition ratio of IA-DTB cysteine labelling (DMSO/compound) (log2 ratio); higher = stronger cysteine engagement by compound; conditions: treatment time: 4 h, cell line lysate: HEK293T
Procedure: (§1)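 IA-DTB competitive cysteine chemoproteomics in HEK293T RIPA lysate. Lysates were treated with compound 29 or 30 at 50 or 200 µM for 4 h, then IA-DTB (500 µM, 1 h), trypsin-digested, NeutrAvidin-enriched and analysed by diaPASEF. Competition ratio = intensity DMSO / intensity compound (n=4 treated, n=64 DMSO); binding: mean log2 CR ≥ 1 and p ≤ 0.05 plus QC filters. Target is the cysteine site.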

Chains of the proteins cited; added tags and fusions are not shown. Lines headed by an entry give the natural chain unless they say otherwise; changes in a name come on top. Residues count along the entry.
UniProt Q9P0K7: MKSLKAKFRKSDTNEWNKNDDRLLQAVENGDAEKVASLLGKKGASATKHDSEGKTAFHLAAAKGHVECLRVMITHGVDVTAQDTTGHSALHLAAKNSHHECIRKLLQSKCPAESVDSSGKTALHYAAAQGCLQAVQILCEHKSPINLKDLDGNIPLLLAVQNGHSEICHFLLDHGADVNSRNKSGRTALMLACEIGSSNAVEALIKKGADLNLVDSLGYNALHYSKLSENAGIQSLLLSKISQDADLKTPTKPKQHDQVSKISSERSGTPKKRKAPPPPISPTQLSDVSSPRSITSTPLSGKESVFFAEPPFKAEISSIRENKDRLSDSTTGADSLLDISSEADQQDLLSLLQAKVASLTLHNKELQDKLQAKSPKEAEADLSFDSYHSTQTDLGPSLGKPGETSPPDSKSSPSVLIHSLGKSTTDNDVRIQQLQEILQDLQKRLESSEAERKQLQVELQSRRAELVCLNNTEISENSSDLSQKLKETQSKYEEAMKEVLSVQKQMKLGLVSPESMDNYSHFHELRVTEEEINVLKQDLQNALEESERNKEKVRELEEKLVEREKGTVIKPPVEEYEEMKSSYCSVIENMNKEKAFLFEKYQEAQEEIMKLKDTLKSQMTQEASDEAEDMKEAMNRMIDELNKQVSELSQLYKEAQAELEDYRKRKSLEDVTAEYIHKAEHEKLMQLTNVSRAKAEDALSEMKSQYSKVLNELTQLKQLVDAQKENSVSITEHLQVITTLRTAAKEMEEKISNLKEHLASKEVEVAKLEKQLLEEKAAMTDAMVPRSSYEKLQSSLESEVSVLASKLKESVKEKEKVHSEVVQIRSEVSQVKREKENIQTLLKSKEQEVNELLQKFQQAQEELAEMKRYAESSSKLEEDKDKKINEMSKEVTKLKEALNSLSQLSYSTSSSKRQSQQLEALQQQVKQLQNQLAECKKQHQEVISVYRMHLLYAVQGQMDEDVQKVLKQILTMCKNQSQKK
UniProt Q9HBH0: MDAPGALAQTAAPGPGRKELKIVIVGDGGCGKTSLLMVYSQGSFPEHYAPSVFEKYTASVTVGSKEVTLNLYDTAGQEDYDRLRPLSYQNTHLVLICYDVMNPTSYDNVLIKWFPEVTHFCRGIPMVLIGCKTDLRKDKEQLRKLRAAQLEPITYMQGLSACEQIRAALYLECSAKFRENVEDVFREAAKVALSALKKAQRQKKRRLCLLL
UniProt P48382: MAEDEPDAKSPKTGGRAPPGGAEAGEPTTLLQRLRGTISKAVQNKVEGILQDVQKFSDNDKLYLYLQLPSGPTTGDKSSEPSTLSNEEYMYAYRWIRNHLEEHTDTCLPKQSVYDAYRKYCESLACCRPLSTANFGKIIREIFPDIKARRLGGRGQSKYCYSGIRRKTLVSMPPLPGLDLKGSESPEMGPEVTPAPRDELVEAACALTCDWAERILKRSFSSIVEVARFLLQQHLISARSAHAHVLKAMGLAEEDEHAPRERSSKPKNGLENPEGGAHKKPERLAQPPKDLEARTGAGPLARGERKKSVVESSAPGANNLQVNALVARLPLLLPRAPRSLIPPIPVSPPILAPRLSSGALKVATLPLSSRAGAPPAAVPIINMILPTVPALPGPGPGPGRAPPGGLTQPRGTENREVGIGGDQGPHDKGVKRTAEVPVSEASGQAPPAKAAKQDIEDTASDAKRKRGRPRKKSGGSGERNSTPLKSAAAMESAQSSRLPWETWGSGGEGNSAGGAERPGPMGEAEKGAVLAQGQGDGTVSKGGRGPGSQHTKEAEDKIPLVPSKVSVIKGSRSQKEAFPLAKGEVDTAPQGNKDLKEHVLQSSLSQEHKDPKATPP
UniProt P17081: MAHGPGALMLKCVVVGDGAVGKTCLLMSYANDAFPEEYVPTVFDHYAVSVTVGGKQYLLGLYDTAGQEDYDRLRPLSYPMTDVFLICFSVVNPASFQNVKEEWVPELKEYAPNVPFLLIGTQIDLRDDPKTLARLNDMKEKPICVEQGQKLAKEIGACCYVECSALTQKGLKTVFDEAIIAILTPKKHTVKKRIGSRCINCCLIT
UniProt P49792, whole entry, looked up: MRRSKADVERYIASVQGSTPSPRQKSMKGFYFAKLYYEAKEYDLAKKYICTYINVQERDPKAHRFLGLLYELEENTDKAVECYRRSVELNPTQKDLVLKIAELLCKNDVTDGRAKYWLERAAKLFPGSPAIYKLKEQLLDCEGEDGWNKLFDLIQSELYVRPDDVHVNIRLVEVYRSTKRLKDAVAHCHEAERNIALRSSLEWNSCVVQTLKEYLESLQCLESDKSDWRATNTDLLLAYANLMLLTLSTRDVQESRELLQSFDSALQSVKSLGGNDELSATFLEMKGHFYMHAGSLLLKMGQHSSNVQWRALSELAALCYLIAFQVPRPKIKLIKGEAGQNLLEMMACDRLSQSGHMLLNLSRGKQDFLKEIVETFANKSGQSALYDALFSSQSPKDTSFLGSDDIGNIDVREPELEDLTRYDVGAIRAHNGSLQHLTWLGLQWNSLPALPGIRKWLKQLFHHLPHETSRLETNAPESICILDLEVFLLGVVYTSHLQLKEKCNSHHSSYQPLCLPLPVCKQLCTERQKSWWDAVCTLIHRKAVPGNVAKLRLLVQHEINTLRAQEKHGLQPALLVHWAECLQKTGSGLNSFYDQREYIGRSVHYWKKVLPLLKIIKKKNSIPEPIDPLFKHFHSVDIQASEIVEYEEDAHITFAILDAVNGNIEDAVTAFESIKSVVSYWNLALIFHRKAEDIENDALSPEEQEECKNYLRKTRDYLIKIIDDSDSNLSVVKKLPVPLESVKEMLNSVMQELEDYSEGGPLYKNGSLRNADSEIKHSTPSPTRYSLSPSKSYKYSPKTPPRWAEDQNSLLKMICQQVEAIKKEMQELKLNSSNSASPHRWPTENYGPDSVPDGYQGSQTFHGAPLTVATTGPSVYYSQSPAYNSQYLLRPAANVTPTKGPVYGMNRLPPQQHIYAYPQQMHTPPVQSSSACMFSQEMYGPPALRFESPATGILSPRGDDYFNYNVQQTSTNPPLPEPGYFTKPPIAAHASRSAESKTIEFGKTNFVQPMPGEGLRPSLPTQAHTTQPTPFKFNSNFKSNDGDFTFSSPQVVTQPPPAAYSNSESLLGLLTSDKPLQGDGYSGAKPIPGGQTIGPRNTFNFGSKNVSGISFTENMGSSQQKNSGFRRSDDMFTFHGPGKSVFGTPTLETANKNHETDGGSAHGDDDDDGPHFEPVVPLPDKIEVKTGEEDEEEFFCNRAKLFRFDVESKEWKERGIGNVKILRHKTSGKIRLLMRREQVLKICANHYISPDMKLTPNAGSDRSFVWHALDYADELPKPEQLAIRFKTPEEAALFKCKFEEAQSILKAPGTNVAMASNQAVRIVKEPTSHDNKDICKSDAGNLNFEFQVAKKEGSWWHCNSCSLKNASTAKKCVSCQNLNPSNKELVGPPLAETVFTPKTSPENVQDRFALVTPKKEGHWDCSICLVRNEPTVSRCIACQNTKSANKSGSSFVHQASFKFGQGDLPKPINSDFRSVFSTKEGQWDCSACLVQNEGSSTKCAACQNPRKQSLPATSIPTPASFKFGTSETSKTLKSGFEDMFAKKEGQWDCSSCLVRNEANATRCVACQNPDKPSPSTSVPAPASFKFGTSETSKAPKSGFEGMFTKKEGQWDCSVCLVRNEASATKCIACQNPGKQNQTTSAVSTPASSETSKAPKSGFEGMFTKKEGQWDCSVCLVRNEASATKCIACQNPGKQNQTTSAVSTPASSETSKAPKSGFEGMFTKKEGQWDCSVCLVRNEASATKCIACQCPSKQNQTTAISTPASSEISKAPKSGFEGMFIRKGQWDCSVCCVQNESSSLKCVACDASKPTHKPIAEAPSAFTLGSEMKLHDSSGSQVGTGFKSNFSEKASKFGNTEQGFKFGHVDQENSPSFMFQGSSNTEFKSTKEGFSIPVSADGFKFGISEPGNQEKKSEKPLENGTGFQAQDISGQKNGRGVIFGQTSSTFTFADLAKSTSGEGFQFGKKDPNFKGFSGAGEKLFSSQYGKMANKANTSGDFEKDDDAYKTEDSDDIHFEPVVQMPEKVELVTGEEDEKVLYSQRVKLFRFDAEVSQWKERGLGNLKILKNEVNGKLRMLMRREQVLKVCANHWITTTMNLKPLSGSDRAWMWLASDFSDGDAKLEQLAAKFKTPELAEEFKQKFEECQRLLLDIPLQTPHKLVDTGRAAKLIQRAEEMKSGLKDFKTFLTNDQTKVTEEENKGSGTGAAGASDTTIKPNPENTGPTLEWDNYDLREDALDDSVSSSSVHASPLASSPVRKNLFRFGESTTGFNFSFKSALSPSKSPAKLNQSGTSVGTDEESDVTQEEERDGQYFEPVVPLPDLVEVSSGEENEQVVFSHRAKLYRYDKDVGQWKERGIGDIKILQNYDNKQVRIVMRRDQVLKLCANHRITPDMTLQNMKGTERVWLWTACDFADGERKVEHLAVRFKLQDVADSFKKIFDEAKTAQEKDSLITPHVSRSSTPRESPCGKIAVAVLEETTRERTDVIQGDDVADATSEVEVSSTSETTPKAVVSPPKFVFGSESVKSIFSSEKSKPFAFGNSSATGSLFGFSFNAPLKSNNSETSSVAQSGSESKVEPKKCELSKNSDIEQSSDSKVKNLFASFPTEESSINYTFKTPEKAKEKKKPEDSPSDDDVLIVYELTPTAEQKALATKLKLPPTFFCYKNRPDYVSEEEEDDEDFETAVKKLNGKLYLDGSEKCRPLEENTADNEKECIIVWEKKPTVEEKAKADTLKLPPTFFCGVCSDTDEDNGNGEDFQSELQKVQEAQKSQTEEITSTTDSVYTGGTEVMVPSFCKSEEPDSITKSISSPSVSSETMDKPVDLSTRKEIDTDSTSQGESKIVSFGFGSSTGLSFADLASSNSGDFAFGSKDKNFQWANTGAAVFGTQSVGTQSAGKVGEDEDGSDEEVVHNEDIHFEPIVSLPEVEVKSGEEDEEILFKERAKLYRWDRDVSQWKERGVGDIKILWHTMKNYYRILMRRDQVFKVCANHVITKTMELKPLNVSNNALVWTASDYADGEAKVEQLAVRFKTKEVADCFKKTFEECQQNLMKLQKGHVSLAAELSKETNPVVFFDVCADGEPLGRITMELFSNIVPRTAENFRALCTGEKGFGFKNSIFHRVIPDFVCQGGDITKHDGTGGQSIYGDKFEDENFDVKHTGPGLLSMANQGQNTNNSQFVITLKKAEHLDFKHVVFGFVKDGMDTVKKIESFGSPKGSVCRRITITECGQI
UniProt Q6VN20: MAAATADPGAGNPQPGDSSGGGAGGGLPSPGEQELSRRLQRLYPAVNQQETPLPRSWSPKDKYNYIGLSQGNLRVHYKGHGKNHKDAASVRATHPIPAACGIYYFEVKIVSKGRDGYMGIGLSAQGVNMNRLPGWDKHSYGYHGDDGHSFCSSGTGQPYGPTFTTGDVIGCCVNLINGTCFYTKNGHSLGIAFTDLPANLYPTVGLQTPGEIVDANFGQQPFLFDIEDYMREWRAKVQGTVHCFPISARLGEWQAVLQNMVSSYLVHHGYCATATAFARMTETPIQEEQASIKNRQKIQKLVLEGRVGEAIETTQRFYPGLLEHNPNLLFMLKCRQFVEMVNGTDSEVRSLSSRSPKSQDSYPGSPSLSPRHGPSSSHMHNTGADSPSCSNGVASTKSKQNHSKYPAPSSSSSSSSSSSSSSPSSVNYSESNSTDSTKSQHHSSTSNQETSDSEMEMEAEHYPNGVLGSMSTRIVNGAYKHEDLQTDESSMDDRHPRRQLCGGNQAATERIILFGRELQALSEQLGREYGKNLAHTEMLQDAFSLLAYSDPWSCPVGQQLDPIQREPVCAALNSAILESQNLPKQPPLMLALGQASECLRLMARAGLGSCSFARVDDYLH
UniProt Q9P258, whole entry, looked up: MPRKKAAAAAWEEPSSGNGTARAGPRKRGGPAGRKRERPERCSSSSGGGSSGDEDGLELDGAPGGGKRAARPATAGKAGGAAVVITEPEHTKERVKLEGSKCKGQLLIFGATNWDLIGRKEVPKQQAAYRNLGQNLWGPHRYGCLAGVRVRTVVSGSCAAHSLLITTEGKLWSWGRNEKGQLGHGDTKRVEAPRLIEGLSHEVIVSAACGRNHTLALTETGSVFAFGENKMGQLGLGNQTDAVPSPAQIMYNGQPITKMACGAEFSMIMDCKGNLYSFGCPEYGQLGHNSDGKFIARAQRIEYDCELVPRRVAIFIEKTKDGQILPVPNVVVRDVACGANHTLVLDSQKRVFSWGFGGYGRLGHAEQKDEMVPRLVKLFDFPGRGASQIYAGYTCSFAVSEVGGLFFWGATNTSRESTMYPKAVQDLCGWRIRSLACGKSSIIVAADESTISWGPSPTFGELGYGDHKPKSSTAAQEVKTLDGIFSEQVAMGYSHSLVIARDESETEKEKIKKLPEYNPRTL
UniProt Q9H6Z4, 96-121: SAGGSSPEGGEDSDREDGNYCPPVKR
UniProt Q8TEU7, 1363-1383: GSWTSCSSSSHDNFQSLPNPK

[2] = compound: ClCC(=O)N[C@H]1CCCc2ccccc12; assay: as above; conditions: treatment time: 4 h, cell line lysate: HEK293T
Procedure: as §1

RAI14 C101 (UniProt Q9P0K7)
log2 mean competition ratio ([1]; 50 µM): -0.177 | log2 mean competition ratio ([1]; 200 µM): -0.207 | log2 mean competition ratio ([2]; 50 µM): -0.0807 | log2 mean competition ratio ([2]; 200 µM): -0.0241

RHOF C173 (UniProt Q9HBH0)
log2 mean competition ratio ([1]; 50 µM): 0.248 | log2 mean competition ratio ([1]; 200 µM): 0.0434 | log2 mean competition ratio ([2]; 50 µM): 0.217 | log2 mean competition ratio ([2]; 200 µM): -0.116

RBM25 C132 (UniProt P49756)
log2 mean competition ratio ([1]; 50 µM): -0.036 | log2 mean competition ratio ([1]; 200 µM): 0.249 | log2 mean competition ratio ([2]; 50 µM): -0.476 | log2 mean competition ratio ([2]; 200 µM): -0.0859

RIF1 C1904 (UniProt Q5UIP0)
log2 mean competition ratio ([1]; 50 µM): -0.109 | log2 mean competition ratio ([1]; 200 µM): 0.183 | log2 mean competition ratio ([2]; 50 µM): -0.102 | log2 mean competition ratio ([2]; 200 µM): 0.214

RFX5 C107 (UniProt P48382)
log2 mean competition ratio ([1]; 50 µM): -0.145 | log2 mean competition ratio ([1]; 200 µM): 0.217 | log2 mean competition ratio ([2]; 50 µM): -0.21 | log2 mean competition ratio ([2]; 200 µM): 0.158

RFC1 C607 (UniProt P35251)
log2 mean competition ratio ([1]; 50 µM): 0.173 | log2 mean competition ratio ([1]; 200 µM): 0.389 | log2 mean competition ratio ([2]; 50 µM): 0.129 | log2 mean competition ratio ([2]; 200 µM): 0.41

RAI14 C935 (UniProt Q9P0K7)
log2 mean competition ratio ([1]; 50 µM): 0.0044 | log2 mean competition ratio ([1]; 200 µM): -0.223 | log2 mean competition ratio ([2]; 50 µM): -0.0212 | log2 mean competition ratio ([2]; 200 µM): 0.0587

RASSF4 C236
log2 mean competition ratio ([1]; 50 µM): -0.0884 | log2 mean competition ratio ([1]; 200 µM): 0.0378 | log2 mean competition ratio ([2]; 50 µM): -0.197 | log2 mean competition ratio ([2]; 200 µM): 0.188

RHOQ C144 (UniProt P17081)
log2 mean competition ratio ([1]; 50 µM): -0.138 | log2 mean competition ratio ([1]; 200 µM): 0.157 | log2 mean competition ratio ([2]; 50 µM): -0.239 | log2 mean competition ratio ([2]; 200 µM): -0.00572

RANBP2 C348 (UniProt P49792)
log2 mean competition ratio ([1]; 50 µM): 0.0506 | log2 mean competition ratio ([1]; 200 µM): 0.528 | log2 mean competition ratio ([2]; 50 µM): 0.0111 | log2 mean competition ratio ([2]; 200 µM): 0.422

RC3H2 C771 (UniProt Q9HBD1)
log2 mean competition ratio ([1]; 50 µM): 0.115 | log2 mean competition ratio ([1]; 200 µM): 0.323 | log2 mean competition ratio ([2]; 50 µM): 0.223 | log2 mean competition ratio ([2]; 200 µM): 0.274

RANBP2 C1296 (UniProt P49792)
log2 mean competition ratio ([1]; 50 µM): -0.0738 | log2 mean competition ratio ([1]; 200 µM): -0.0826 | log2 mean competition ratio ([2]; 50 µM): -0.388 | log2 mean competition ratio ([2]; 200 µM): -0.0258

RB1CC1 C946 (UniProt Q8TDY2)
log2 mean competition ratio ([1]; 50 µM): -0.0464 | log2 mean competition ratio ([1]; 200 µM): -0.253 | log2 mean competition ratio ([2]; 50 µM): -0.193 | log2 mean competition ratio ([2]; 200 µM): -0.376

RIF1 C1594 (UniProt Q5UIP0)
log2 mean competition ratio ([1]; 50 µM): 0.0344 | log2 mean competition ratio ([1]; 200 µM): -0.0666 | log2 mean competition ratio ([2]; 50 µM): 0.316 | log2 mean competition ratio ([2]; 200 µM): -0.0267

RAF1 C637 (UniProt P04049)
log2 mean competition ratio ([1]; 50 µM): -0.138 | log2 mean competition ratio ([1]; 200 µM): -0.0826 | log2 mean competition ratio ([2]; 50 µM): 0.233 | log2 mean competition ratio ([2]; 200 µM): -0.197

RANBP17 C765 (UniProt Q9H2T7)
log2 mean competition ratio ([1]; 50 µM): 0.0378 | log2 mean competition ratio ([1]; 200 µM): -0.125 | log2 mean competition ratio ([2]; 50 µM): -0.0228 | log2 mean competition ratio ([2]; 200 µM): -0.148

RAP1GAP C83 (UniProt P47736)
log2 mean competition ratio ([1]; 50 µM): -0.0364 | log2 mean competition ratio ([1]; 200 µM): 0.034 | log2 mean competition ratio ([2]; 50 µM): -0.0227 | log2 mean competition ratio ([2]; 200 µM): 0.198

RBM25 C795 (UniProt P49756)
log2 mean competition ratio ([1]; 50 µM): -0.164 | log2 mean competition ratio ([1]; 200 µM): -0.271 | log2 mean competition ratio ([2]; 50 µM): 0.553 | log2 mean competition ratio ([2]; 200 µM): -0.489

RANBP10 C569 (UniProt Q6VN20)
log2 mean competition ratio ([1]; 50 µM): 0.143 | log2 mean competition ratio ([1]; 200 µM): -0.354 | log2 mean competition ratio ([2]; 50 µM): -0.257 | log2 mean competition ratio ([2]; 200 µM): -0.289

RCC2 C428 (UniProt Q9P258)
log2 mean competition ratio ([1]; 50 µM): -0.0581 | log2 mean competition ratio ([1]; 200 µM): -0.302 | log2 mean competition ratio ([2]; 50 µM): 0.0851 | log2 mean competition ratio ([2]; 200 µM): -0.0808

RANBP3 C116 (UniProt Q9H6Z4)
log2 mean competition ratio ([1]; 50 µM): -0.112 | log2 mean competition ratio ([1]; 200 µM): -0.157 | log2 mean competition ratio ([2]; 50 µM): -0.113 | log2 mean competition ratio ([2]; 200 µM): -0.201

RB1 C666 (UniProt P06400)
log2 mean competition ratio ([1]; 50 µM): -0.0834 | log2 mean competition ratio ([1]; 200 µM): -0.202 | log2 mean competition ratio ([2]; 50 µM): -0.124 | log2 mean competition ratio ([2]; 200 µM): -0.227

RAPGEF6 C1368 (UniProt Q8TEU7)
log2 mean competition ratio ([1]; 50 µM): 0.126 | log2 mean competition ratio ([1]; 200 µM): 0.483 | log2 mean competition ratio ([2]; 50 µM): -0.0611 | log2 mean competition ratio ([2]; 200 µM): 0.517

RANBP2 C3040 (UniProt P49792)
log2 mean competition ratio ([1]; 50 µM): 0.117 | log2 mean competition ratio ([1]; 200 µM): -0.132 | log2 mean competition ratio ([2]; 50 µM): -0.134 | log2 mean competition ratio ([2]; 200 µM): -0.0819

From the supplement of paper PMC11732987, “Enantioselective OTUD7B fragment discovery through chemoproteomics screening and high-throughput optimisation” (Communications Chemistry, 2025)
